This passage reports TEAD-luciferase reporter activity results from the supplement of paper PMC10735217.

The test system of the assay is HEK293A TEAD-LUC reporter. Nature of the assay: TEAD-luciferase reporter activity (YAP activation), robust Z score vs plate; higher = stronger YAP/TEAD activation. The following applies: 24 h. For orientation: A reporter such as luciferase makes a cellular process visible.

Structures can show the parent of a compound that is named as a salt. The list shows a part of the results. Repeats in this data set agree poorly, so a single value says little.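 In a drug-repurposing library screen, luminescence reads luciferase driven by eight TEAD-binding elements, stably integrated into human kidney-derived cells. Compounds scoring over five robust Z scores above the plate mean are called hits.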

`CC(C)(O)CCOc1c(-c2ccc(S(C)(=O)=O)cc2)cnn(-c2ccc(F)c(F)c2)c1=O`: the TEAD-luciferase reporter activity was inactive: -1.38 (compound concentration: 200 nM), inactive: -1.42 (compound concentration: 2 uM) and inactive: 0.883 (compound concentration: 10 uM).

In the case of `COc1ccc(N2CCN(C(=O)CCCc3c[nH]c4ccccc34)CC2)cc1`, the TEAD-luciferase reporter activity (compound concentration: 200 nM) was inactive: -2.28, the TEAD-luciferase reporter activity (compound concentration: 2 uM) is inactive: -1.61 and the TEAD-luciferase reporter activity (compound concentration: 10 uM) is inactive: 3.21.

As to `CC(CN1c2ccccc2Sc2ccccc21)N(C)C` (configuration not stated) [Phenergan58-33-3], the TEAD-luciferase reporter activity (compound concentration: 200 nM) is inactive: 0.617 and the TEAD-luciferase reporter activity (compound concentration: 10 uM) was active: 13.8.

Turning to `COc1ccc(Cl)cc1N1CCN(CCCNc2nccc(C(N)=O)n2)CC1`, the TEAD-luciferase reporter activity runs as follows: (compound concentration: 200 nM) inactive: -0.8; (compound concentration: 2 uM) inactive: -0.823; (compound concentration: 10 uM) inactive: -1.16.

On to `CC(=O)NC[C@H]1CN(c2ccc3c(c2)CCN3C(=O)CO)C(=O)O1`, for which the TEAD-luciferase reporter activity (compound concentration: 200 nM) was inactive: -1.32, the TEAD-luciferase reporter activity (compound concentration: 2 uM) was inactive: -1.62 and the TEAD-luciferase reporter activity (compound concentration: 10 uM) is inactive: 0.0502.

Take `CCCCOc1ccc(CC(=O)NO)cc1` [bufexamac]: the TEAD-luciferase reporter activity (compound concentration: 200 nM) is inactive: 0.208, the TEAD-luciferase reporter activity (compound concentration: 2 uM) is inactive: -1.31 and the TEAD-luciferase reporter activity (compound concentration: 10 uM) was inactive: 0.325.

Regarding `c1cc2c3c(cccc3c1)C(NCCCCn1ccnc1)=N2`, the TEAD-luciferase reporter activity is inactive: 0.0234 (compound concentration: 200 nM), inactive: 0.837 (compound concentration: 2 uM) and inactive: -0.452 (compound concentration: 10 uM).

For the molecule `N=C(N)NCC1COc2ccccc2O1` (configuration not stated), the TEAD-luciferase reporter activity is, setting by setting: (compound concentration: 200 nM) inactive: -3.39; (compound concentration: 2 uM) inactive: -0.0376; (compound concentration: 10 uM) inactive: 3.45.

Take `CCN(C/C=C\c1cc(Cl)c(C2C3CC4CC(C3)CC2C4)c(Cl)c1)C1CCCCC1` (configuration not stated): the TEAD-luciferase reporter activity was inactive: -1.21 (compound concentration: 200 nM), inactive: 1.08 (compound concentration: 2 uM) and inactive: -1.13 (compound concentration: 10 uM).

Consider `C=CC(=O)Nc1cc2c(Nc3ccc(F)c(Cl)c3)ncnc2cc1C#CC(C)(C)N1CCN(C)CC1`, for which the TEAD-luciferase reporter activity is, setting by setting: (compound concentration: 200 nM) inactive: -1.27; (compound concentration: 2 uM) inactive: -1.63; (compound concentration: 10 uM) inactive: -2.09.

As for `COc1c(N2CC3(CC3)[C@](C)(N)C2)c(F)cc2c(=O)c(C(=O)O)cn([C@@H]3C[C@@H]3F)c12`, the TEAD-luciferase reporter activity reads like this: (compound concentration: 200 nM) inactive: -0.983; (compound concentration: 10 uM) inactive: 1.69.

With `CC(C)Oc1ccc(-c2nc(-c3cccc4c3CC[C@@H]4NCCO)no2)cc1C#N` [Ozanimod], the TEAD-luciferase reporter activity was inactive: -0.133 (compound concentration: 200 nM), inactive: -0.349 (compound concentration: 2 uM) and inactive: 3.1 (compound concentration: 10 uM).

Regarding `COC[C@H](C)Oc1cc(Oc2cnc(C(=O)N3CCC3)cn2)cc(C(=O)Nc2ccc(C)cn2)c1`, the TEAD-luciferase reporter activity is inactive: 0.0791 (compound concentration: 200 nM), inactive: -0.234 (compound concentration: 2 uM) and inactive: -1.41 (compound concentration: 10 uM).

With `CSCC[C@H](NC=O)C(=O)N[C@@H](CC(=O)O)C(=O)NCC(=O)N[C@@H](CS)C(=O)N[C@@H](CCC(=O)O)C(=O)N[C@@H](CC(C)C)C(=O)O`, the TEAD-luciferase reporter activity reads like this: (compound concentration: 200 nM) inactive: -0.78; (compound concentration: 2 uM) inactive: -0.545; (compound concentration: 10 uM) inactive: -0.79.

`COc1cccc(C(=O)Nc2ccc(OCCN3CCOCC3)c(-c3ccnn3C)c2)c1` [temanogrel]: the TEAD-luciferase reporter activity (compound concentration: 200 nM) was inactive: 0.457, the TEAD-luciferase reporter activity (compound concentration: 2 uM) was inactive: 0.151 and the TEAD-luciferase reporter activity (compound concentration: 10 uM) was inactive: 1.31.

With `CN1Cc2cc(C3=NNC(=O)CC3)ccc2NC1=O`, the TEAD-luciferase reporter activity runs as follows: (compound concentration: 200 nM) inactive: 0.061; (compound concentration: 2 uM) inactive: -0.682; (compound concentration: 10 uM) inactive: -0.0119.

As to `O=C(NO)c1ccc(O)c(O)c1` [Didox], the TEAD-luciferase reporter activity reads like this: (compound concentration: 200 nM) inactive: -0.428; (compound concentration: 2 uM) inactive: -0.749; (compound concentration: 10 uM) inactive: 0.545.

On to `Cc1ccccc1C(=O)N1CCC2(CC1)Cc1ccccc1NC2=O`, for which, where the note is “compound concentration: 200 nM”, the TEAD-luciferase reporter activity is inactive: -2.55.

With `NC(CCC(=O)O)C(=O)O` (configuration not stated), the TEAD-luciferase reporter activity by setting is: (compound concentration: 200 nM) inactive: -0.515; (compound concentration: 10 uM) inactive: 0.579.

For the molecule `Cc1ccc2nc(N)[nH]c(=O)c2c1Sc1ccncc1` [Nolatrexed dihydrochloride], the TEAD-luciferase reporter activity runs as follows: (compound concentration: 200 nM) inactive: -0.0326; (compound concentration: 2 uM) inactive: 0.197; (compound concentration: 10 uM) inactive: 1.34.

As for `CCC(=O)[C@@]1(O)CC[C@H]2[C@@H]3CCC4=CC(=O)CC[C@]4(C)C3[C@@H](O)C[C@@]21C` (some centres not stated), the TEAD-luciferase reporter activity by setting is: (compound concentration: 200 nM) inactive: 0.383; (compound concentration: 2 uM) inactive: -1.08; (compound concentration: 10 uM) inactive: 0.409.

As for `CC(C(=O)O)c1ccc(CC2CCCC2=O)cc1` (configuration not stated) [loxoprofen], the TEAD-luciferase reporter activity is inactive: -0.202 (compound concentration: 200 nM), inactive: 0.23 (compound concentration: 2 uM) and inactive: 2.26 (compound concentration: 10 uM).

On to `CC(C)(C)OC(=O)CN(C(=O)CNC(=O)Nc1cccc(C(=O)O)c1)c1ccccc1C(=O)c1ccccc1`, for which the TEAD-luciferase reporter activity (compound concentration: 200 nM) is inactive: -0.255, the TEAD-luciferase reporter activity (compound concentration: 2 uM) is inactive: -1.08 and the TEAD-luciferase reporter activity (compound concentration: 10 uM) was inactive: -1.02.

For `O=C(c1ccc(Cl)cc1)N1CCC2(CC1)Cc1ccccc1NC2=O`, the TEAD-luciferase reporter activity is, setting by setting: (compound concentration: 200 nM) inactive: -2.8; (compound concentration: 10 uM) inactive: 1.68.

`COc1ccc(-c2cc(=O)c3c(O)c(OC)c(O)cc3o2)cc1OC`: the TEAD-luciferase reporter activity is, setting by setting: (compound concentration: 200 nM) inactive: 0.322; (compound concentration: 2 uM) inactive: -0.116; (compound concentration: 10 uM) inactive: -2.36.

Turning to `COC(=O)C1=C(C)NC(C)=C(C(=O)O[C@@H]2CCCN(Cc3ccccc3)C2)[C@@H]1c1cccc([N+](=O)[O-])c1` [benidipine hydrochloride], the TEAD-luciferase reporter activity runs as follows: (compound concentration: 200 nM) inactive: -1.38; (compound concentration: 2 uM) inactive: 0.178; (compound concentration: 10 uM) inactive: 0.535.
